Data source: PubChem BioAssay AID1671195 (Yale University, 2021)

- Aim: 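Knockdowns that increase or decrease uptake of fluorescent LDL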 (primary screen)
- Cell system: human Huh7 hepatoma cells
- Knock-down reagent: siRNA pool against human genes, 18 nM
- Time to read-out: about 2 to 2.5 days of knockdown, then 8 h LDL uptake
- Treatment: DiI-labelled LDL at 30 µg/ml for 8 h, in lipoprotein-deficient serum medium
- Measurement: 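Per-cell DiI-LDL intensity by automated imaging; well means scaled to the plate median and given as a robust z-score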
- Direction: robust z-score: higher = more LDL uptake after knockdown
- Call rule: 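Active when two or more replicates show a robust z-score above 2 or below -2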
Shown is one part, drawn at random, of about 22,000 deposited reagents. About 1,510 of them (6.9%) were called active. 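Active includes knockdowns raising or lowering LDL uptake; positive z-scores mean more uptake, negative mean less.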

TTC27 — robust z-score, replicate 1 = 4.53; robust z-score, replicate 2 = 2.83; robust z-score, replicate 3 = 4.52; Outcome = active
HMBOX1 — robust z-score, replicate 1 = -0.864; robust z-score, replicate 2 = -1.46; robust z-score, replicate 3 = -1.06; Outcome = inactive
LOC441092 (retired record) — robust z-score, replicate 1 = -0.189; robust z-score, replicate 2 = -0.692; robust z-score, replicate 3 = -0.4; Outcome = inactive
LOC401155 (retired record) — robust z-score, replicate 1 = 2.1; robust z-score, replicate 2 = 2.1; robust z-score, replicate 3 = 1.92; Outcome = active
PRKD2 — robust z-score, replicate 1 = -0.0781; robust z-score, replicate 2 = -0.796; robust z-score, replicate 3 = 0.314; Outcome = inactive
GAREM1 — robust z-score, replicate 1 = 1.96; robust z-score, replicate 2 = 1.33; robust z-score, replicate 3 = 1.63; Outcome = inactive
RAD54L2 — robust z-score, replicate 1 = 0.163; robust z-score, replicate 2 = 0.245; robust z-score, replicate 3 = 0.52; Outcome = inactive
NDN — robust z-score, replicate 1 = 0.908; robust z-score, replicate 2 = 0.512; robust z-score, replicate 3 = 1.55; Outcome = inactive
RPS15AP34 — robust z-score, replicate 1 = -1.03; robust z-score, replicate 2 = -0.632; robust z-score, replicate 3 = -0.612; Outcome = inactive
EPHB4 — robust z-score, replicate 1 = 2.63; robust z-score, replicate 2 = 2.72; robust z-score, replicate 3 = 1.28; Outcome = active
PRELP — robust z-score, replicate 1 = -1.69; robust z-score, replicate 2 = 0.384; robust z-score, replicate 3 = -1.58; Outcome = inactive
LOC389403 (retired record) — robust z-score, replicate 1 = -0.529; robust z-score, replicate 2 = -0.245; robust z-score, replicate 3 = -0.637; Outcome = inactive
DHRS4 — robust z-score, replicate 1 = -0.896; robust z-score, replicate 2 = -0.633; robust z-score, replicate 3 = -0.872; Outcome = inactive
LOC389329 (retired record) — robust z-score, replicate 1 = -1.32; robust z-score, replicate 2 = -1.24; robust z-score, replicate 3 = -1.24; Outcome = inactive
ITFG2-AS1 — robust z-score, replicate 1 = -1.01; robust z-score, replicate 2 = -1.05; robust z-score, replicate 3 = -1.13; Outcome = inactive
RPL19P13 — robust z-score, replicate 1 = 1.43; robust z-score, replicate 2 = 1.8; robust z-score, replicate 3 = 1.29; Outcome = inactive

2 entries from above, reformatted.
Target gene	robust z-score, replicate 1	robust z-score, replicate 2	robust z-score, replicate 3	Outcome
LOC401155 (retired record)	2.1	2.1	1.92	active
PRKD2	-0.0781	-0.796	0.314	inactive
